Test [1] has as its target GST-Cyclin K fusion protein (UniProt O75909). The experiment in a line: pull-down; GST-Cyclin K immobilized on GST beads, incubated overnight at 4°C with lysates of HEK293T cells transfected with Flag-β-catenin; washed four times; Western blot; only the target purified. (In general: A western blot detects proteins with antibodies after separation by electrophoresis.)
A further test addresses SFB-Cyclin K (UniProt O75909). Kind of test: co-IP; A549 and H460 cells transfected with SFB-Cyclin K for 24 h, lysed in NETN, incubated with S beads overnight; washed four times with NETN; Western blot.
The target in test [2] is Cyclin K (endogenous) (human (endogenous in A549 and H460)) (UniProt O75909). Kind of test: co-IP; endogenous; A549 and H460 lysates incubated with anti-Cyclin K antibody, then protein A/G agarose overnight; IgG as negative control; Western blot.

The chains behind the UniProt entries cited, without tags or fusion partners.
UniProt O75909: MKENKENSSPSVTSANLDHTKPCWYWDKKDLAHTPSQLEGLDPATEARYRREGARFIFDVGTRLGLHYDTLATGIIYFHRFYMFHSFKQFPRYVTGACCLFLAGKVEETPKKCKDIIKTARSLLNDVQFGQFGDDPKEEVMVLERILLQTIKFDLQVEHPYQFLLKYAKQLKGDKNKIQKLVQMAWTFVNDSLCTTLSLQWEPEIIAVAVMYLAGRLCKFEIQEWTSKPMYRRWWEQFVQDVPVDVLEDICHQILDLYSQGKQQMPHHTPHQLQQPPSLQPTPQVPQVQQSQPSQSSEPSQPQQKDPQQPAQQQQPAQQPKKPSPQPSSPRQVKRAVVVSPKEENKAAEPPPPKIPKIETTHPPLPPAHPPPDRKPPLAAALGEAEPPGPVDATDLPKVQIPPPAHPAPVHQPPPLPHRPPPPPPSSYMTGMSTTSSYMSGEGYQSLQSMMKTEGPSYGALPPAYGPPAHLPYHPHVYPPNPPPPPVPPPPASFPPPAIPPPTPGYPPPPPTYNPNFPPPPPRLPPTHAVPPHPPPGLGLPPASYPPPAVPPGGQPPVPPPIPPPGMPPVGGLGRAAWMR
UniProt P35222: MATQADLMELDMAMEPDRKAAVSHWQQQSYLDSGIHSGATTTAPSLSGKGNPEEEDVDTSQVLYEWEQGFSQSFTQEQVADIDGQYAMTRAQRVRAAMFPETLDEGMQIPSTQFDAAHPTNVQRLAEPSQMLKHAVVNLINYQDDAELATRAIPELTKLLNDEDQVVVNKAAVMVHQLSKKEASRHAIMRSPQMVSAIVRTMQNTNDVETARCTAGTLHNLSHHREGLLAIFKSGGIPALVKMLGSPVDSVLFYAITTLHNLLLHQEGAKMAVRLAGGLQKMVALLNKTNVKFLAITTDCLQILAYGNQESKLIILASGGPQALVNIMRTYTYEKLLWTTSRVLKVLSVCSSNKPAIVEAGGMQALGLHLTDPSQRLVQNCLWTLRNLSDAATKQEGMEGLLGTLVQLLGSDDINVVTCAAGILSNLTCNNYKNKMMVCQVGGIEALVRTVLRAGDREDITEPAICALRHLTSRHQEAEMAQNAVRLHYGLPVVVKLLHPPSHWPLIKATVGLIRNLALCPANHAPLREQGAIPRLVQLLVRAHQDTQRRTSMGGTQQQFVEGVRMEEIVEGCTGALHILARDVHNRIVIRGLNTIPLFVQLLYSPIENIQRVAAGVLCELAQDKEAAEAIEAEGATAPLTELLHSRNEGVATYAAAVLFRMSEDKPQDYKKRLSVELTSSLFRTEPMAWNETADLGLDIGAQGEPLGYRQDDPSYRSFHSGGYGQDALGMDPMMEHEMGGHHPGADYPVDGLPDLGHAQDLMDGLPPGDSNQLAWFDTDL

Results are given in words; binding and its absence hold for the method and conditions named. Binding seen in cells or lysates may run through a third protein. Some results given as binding are weak or reduced against the parent protein; the word gives no strength.

“Flag-β-catenin (from UniProt P35222 1-781)”: the binding result in test [1] is “binds”. For the substance “β-catenin (endogenous) (from UniProt P35222 1-781)”, the binding result (in the test with SFB-Cyclin K; in test [2]) was “binds” in each case.
